The target in one experiment is MAT2A homodimer (Homo sapiens, UniProt P31153). Nature of the experiment: Biochemical assay: inhibition of recombinant MAT2A homodimer (phosphate release, PiColorLock Gold). The following applies: read-out: Enzyme Inhibition; MAT2A IC50 score. As for the experimental part:
Mat2A protein was expressed by recombinant baculovirus in SF9 infected cells using the Bac to Bac system cloned into the pFASTBAC1 vector (Invitrogen, Carlsbad, Calif.). Recombinant MAT2A was isolated from the cell lysate of 150 g of infected cells using HP Ni sepharose column chromatography. Recombinant MAT2A homodimer was eluted with 250 and 500 mM imidazole, and fractions containing MAT2A were identified by sodium dodecyl sulfate polyacrylamide gel electrophoresis and pooled.
For determination of the inhibitory potency of compounds against the MAT2A homodimer, protein was diluted to 4 μg/mL in assay buffer (50 mM Tris, pH 8.0, 50 mM KCl, 15 mM MgCl2, 0.3 mM EDTA, 0.005% [w/v] bovine serum albumin [BSA]). Test compound was prepared in 100% dimethyl sulfoxide (DMSO) at 50× the desired final concentration. A 1 μL volume of compound dilution was added to 40 μL of enzyme dilution and the mixture was allowed to equilibrate for 60 minutes at 25° C. The enzymatic assay was initiated by the addition of 10 μL of substrate mix (500 μM ATP, pH 7.0, 40 μM L-methionine in 1× assay buffer), and the mixture was incubated for a further 60 minutes at 25° C. The reaction was halted and the liberated phosphate released by the enzyme in stoichiometric amounts by the production of S-adenosyl methionine (SAM) was measured using the PiColorLock Gold kit (Innova Biosciences, UK). […]

By UniProt entry, the sequences of proteins in these tests, tags left out.
UniProt P31153, whole entry: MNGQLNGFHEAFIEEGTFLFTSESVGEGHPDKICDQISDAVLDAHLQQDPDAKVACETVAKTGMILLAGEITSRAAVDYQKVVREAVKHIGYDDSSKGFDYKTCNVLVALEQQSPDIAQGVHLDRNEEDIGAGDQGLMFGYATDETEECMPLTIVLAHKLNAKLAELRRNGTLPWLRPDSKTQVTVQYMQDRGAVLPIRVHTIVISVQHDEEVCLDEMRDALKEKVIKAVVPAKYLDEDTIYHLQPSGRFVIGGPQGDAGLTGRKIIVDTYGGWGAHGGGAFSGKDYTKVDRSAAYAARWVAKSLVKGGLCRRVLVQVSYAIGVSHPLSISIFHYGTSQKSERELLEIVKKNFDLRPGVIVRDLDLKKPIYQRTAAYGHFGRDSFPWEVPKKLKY

The subject of experiment [1] is SAM in HCT116 human colon carcinoma cell line with deleted MTAP gene. In words: Cellular assay of target engagement (SAM): SAM level by LC-MS/MS after 72 hrs. The conditions noted are these: read-out: Cell 72 h SAM Inhibition (MTAP −/−), IC50 score. As for the experimental part:
Cellular Assay of Target Engagement (SAM)
Measurement of MAT2A activity in cells was made by direct quantitation of the abundance of the product of its enzymatic activity, SAM. Cancer cells were treated with candidate MAT2A inhibitors for a suitable incubation period, and the cells were then lysed using a reagent which quenched any further enzyme activity. Soluble metabolites including SAM were collected and SAM itself was directly measured from the lysate using quantitative LC-MS/MS.
A typical assay was performed using an HCT116 human colon carcinoma cell line which was genetically engineered to delete the MTAP gene (commercially available from Horizon Discovery). This cell line was utilized because it was determined that loss of the MTAP gene predicts sensitivity to MAT2A inhibitors. Cells were plated in 96-well dishes at appropriate cell density. Following 24 hours, cells were then treated with the candidate MAT2A inhibitor. […]
To quantitate SAM levels following compound treatment, cells were gently washed once in ammonium carbonate buffer (75 mM at pH 7.4), placed on dry ice, and lysed with metabolite extraction buffer (80% cold methanol and 20% water (v/v) with acetic acid at 1M final concentration with 200 ng/mL deuterated d3-SAM as internal control). […]

The next experiment relates to HCT116 MTAP-/-. Nature of the experiment: Inhibition of cellular proliferation, 4 days, Cell Titer Glo, HCT116 MTAP-/-. The following applies: read-out: 4 Day Relative Growth Inhibition (MTAP −/−), IC50 score. As for the experimental part:
(§1) Assay for Inhibition of Cellular Proliferation
(§2) Test compound impact on cancer cell growth was assessed by treating cancer cells with compound for 4 days and then measuring proliferation using an ATP-based cell proliferation readout (Cell Titer Glo, Promega Corporation).
(§3) In a typical assay an isogenic pair of HCT116 human colon carcinoma cell lines which vary only in MTAP deletion status (HCT116 MTAP +/+ and HCT116 MTAP−/−) were plated in 96-well dishes at appropriate cell density. Following 24 hours, cells were then treated with the candidate MAT2A inhibitor. Prior to addition to cells, the compound was first serially diluted in 100% DMSO, typically as a 3-fold serial dilution starting at 500× top dose with 10 dose points including DMSO only control. […]
(§4) To measure inhibition of cellular proliferation, cells were allowed to equilibrate to room temperature for 30 minutes, and were then treated with 125 μL of Cell Titer Glo reagent. […] Luminescent signal was then measured using a plate-based luminometer Veritas version 1.9.2 using ATP standard curve to confirm assay reproducibility from run to run. This luminescence measure was converted to a proliferation index by subtracting from each data point the ATP luminescence signal measured from a bank (no cells) well and dividing by the ATP luminescence signal measured in 0.2% DMSO control well adjusted for signal in blank well. […]

The subject of a further experiment is HCT116 MTAP +/+. In words: Inhibition of cellular proliferation, 4 days, Cell Titer Glo, HCT116 MTAP+/+. The following applies: read-out: 4 Day Relative Growth Inhibition (MTAP +/+), IC50 score. As for the experimental part:
as §1, §2, §3, §4

The match of structure and compound is tentative. Some results are limits rather than exact numbers.

Turning to `COc1ccc(-n2c(=O)c(-c3ccc4nn(C)cc4c3)nc3ccc(OCC(F)(F)F)nc32)cn1`, the IC50 at MAT2A homodimer is under 100 nM; in experiment [1], under 100 nM; in the experiment with HCT116 MTAP-/-, under 100 nM; in the experiment with HCT116 MTAP +/+, over 1000 nM.

For the origin of these results see patent US20220251081A1, “HETEROBICYCLIC INHIBITORS OF MAT2A AND METHODS OF USE FOR TREATING CANCER” (priority 2019, published 2022).
